According to patent publication US20100191019A1, “Organic Compounds” (priority 2007, published 2010):

assay: Odour description of the neat compound; conditions: not given

Row | Molecule | Odour description
1 | (5E,7E,9E)-undeca-5,7,9-trien-4-one and (5E,7E,9Z)-undeca-5,7,9-trien-4-one [Example 3] | citrus, fresh, aldehydic, allylic, metallic, fruity
2 | C=CCC(O)/C=C/C=C/CCCC (centres unmarked) [Example 10, (5E,7E)-dodeca-1,5,7-trien-4-ol] | fatty, fruity, floral, animalic, green, allylic
3 | C=CC(O)/C=C/C=C/CCCC (centres unmarked) [Example 8, (4E,6E)-undeca-1,4,6-trien-3-ol] | green, fruity, smoked, ethery
4 | C=C/C=C/C=C/C(O)CCCC (centres unmarked) [Example 2, (6E,8E)-undeca-6,8,10-trien-5-ol] | green, floral, metallic
5 | CC=CC(O)/C=C/C=C/CCCC (centres unmarked) [Example 9, (5E,7E)-dodeca-2,5,7-trien-4-ol] | fruity, fatty, floral, allylic, metallic
6 | C=C/C=C/C=C/CCC(O)CC (centres unmarked) [Example 7, (6E,8E)-undeca-6,8,10-trien-3-ol] | green, Undecatriene-like, floral, fruity, woody, leather
7 | (5E,7E,9E)-undeca-5,7,9-trien-4-ol and (5E,7E,9Z)-undeca-5,7,9-trien-4-ol [Example 4] | fruity, fatty, floral
8 | C=C/C=C/C=C/CCCC(C)O (centres unmarked) [Example 6, (6E,8E)-undeca-6,8,10-trien-2-ol] | Undecatriene-like, fatty, green, fruity, metallic
9 | C=C/C=C/C=C/C(=O)CCCC [Example 1, (6E,8E)-undeca-6,8,10-trien-5-one] | floral, green, metallic

same assay, conditions: dry down notes

Row | Molecule | Odour description: Dry down notes
10 | (6Z,8E)-undeca-6,8,10-trien-5-ol and (6E,8E)-undeca-6,8,10-trien-5-ol [Example 5] | more Galbanone-like than Undecatriene-like, Cetone V aspect

same assay, conditions: top notes

Row | Molecule | Odour description: Top notes
11 | (6Z,8E)-undeca-6,8,10-trien-5-ol and (6E,8E)-undeca-6,8,10-trien-5-ol [Example 5] | green, violet, pineapple, Undecavertol, Folione
